Assay results from US20260240837A1, “Compositions Reducing the Expression or Activity of C1 GALT1 for Treating Ewing Sarcoma” (University of Massachusetts Medical School, priority 2023, published 2026).
These are yes or no findings as the source states them, for the method shown. In cells and extracts the contact can be indirect. Some entries that bind do so weakly or less than the wild type.

Protein sequences, listed by entry. Tags and fused reporters are not part of them. Residues count along the entry.
UniProt Q99835, residues 28-787: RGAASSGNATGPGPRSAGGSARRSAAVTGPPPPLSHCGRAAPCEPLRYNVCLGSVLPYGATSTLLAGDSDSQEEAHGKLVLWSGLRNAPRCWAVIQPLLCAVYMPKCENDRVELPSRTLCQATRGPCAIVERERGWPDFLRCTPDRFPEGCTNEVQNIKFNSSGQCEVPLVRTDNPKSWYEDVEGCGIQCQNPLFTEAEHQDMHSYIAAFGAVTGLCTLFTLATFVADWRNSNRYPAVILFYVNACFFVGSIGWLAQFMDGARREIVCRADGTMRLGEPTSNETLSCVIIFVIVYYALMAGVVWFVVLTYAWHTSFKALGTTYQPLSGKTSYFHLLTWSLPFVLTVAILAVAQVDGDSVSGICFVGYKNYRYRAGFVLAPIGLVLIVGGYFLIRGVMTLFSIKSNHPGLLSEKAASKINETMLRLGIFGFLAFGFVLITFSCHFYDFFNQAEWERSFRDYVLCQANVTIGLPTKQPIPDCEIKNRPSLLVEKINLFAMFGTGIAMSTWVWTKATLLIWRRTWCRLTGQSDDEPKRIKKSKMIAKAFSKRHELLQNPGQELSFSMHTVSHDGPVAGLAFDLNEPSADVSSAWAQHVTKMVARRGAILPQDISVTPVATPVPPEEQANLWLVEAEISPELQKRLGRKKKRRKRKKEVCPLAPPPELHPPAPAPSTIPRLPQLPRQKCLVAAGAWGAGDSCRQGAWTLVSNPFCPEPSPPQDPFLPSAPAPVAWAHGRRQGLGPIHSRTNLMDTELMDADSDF
UniProt Q9NS00: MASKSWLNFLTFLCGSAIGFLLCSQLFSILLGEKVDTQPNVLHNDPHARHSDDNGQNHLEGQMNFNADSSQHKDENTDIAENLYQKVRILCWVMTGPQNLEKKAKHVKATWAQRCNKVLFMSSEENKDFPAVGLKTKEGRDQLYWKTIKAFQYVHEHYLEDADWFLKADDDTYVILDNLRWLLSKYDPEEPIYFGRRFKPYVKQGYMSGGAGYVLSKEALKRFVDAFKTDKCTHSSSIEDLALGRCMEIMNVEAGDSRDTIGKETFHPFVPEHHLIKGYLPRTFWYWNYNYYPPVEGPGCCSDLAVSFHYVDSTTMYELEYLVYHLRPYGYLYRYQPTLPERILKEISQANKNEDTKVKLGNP

Molecular target: Smoothened (SMO) (human) (UniProt Q99835)
Test: reciprocal co-immunoprecipitation from A673 cell lysate (anti-SMO or anti-C1GALT1 IP, immunoblot)

binding: binds
Substance: core 1 synthase, glycoprotein-N-acetylgalactosamine 3-beta-galactosyltransferase 1 (C1GALT1) (from UniProt Q9NS00 1-363) (enzyme)
